Out of some 320,000 compounds screened, about 2,100 (0.66%) were called active. Inconclusive means that the source gave no clear call. Such entries were picked first, then a sample of the others. Calls follow the shape of the dose curve; as a rule, active = well fitted inhibition curve with a large enough effect in the signal ratio, with a control signal flat (not every such curve was filed as active); inconclusive = small, poorly fitted or top-dose-only effect, or effect the other way, or a change in a side signal; inactive = flat fitted curve, though single readings scatter; the % refers to the signal ratio. A potency beside an inconclusive call is a rough fit, not a confirmed value. Where a SMILES comes first, the peptide text is derived from it. [ ]: non-standard residue; d: D form. The star is where a group is joined. PhAc = O=C(Cc1ccccc1)*
assay: qHTS Assay for Lipid Storage Modulators in Drosophila S3 Cells; details: BODIPY lipid droplet fluorescence, 18-24 h, cells fed with added oleic acid; lipid storage change, negative = inhibition: at 46.1 µM (top of the series) unless noted
Procedure, shortened: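 Drosophila S3 cells got compounds at several concentrations plus oleic acid (400 uM solution). Laser-scanning cytometry with 488 nm excitation read lipid droplets at 500-530 nm and cells at 575-640 nm. Percent activity was relative to 20 uM Triacsin C.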
% is scaled to controls: 0 for no effect and ±100 for the full control effect; potency is read from the fitted curve at half-maximal effect.

Row | SMILES | Potency | lipid storage change, negative = inhibition
1 | COc1ccc(NS(=O)(=O)c2cc3c(cc2C)N(C(C)=O)CCO3)cc1 | inconclusive: 6.51 µM [activator, partial curve] | –
2 | CCOc1ccc(OCCOCCN2CCc3ccccc3C2)cc1 | – | inconclusive: 136%
3 | Cc1ccc2cn[nH]c2c1[N+](=O)[O-] | inconclusive: 0.58 µM [falling, single point] | –
4 | COc1ccc(N(CC(=O)N2CCN(c3ccccc3)CC2)S(=O)(=O)c2ccc(C)cc2)cc1 | inconclusive: 0.103 µM [activator, full curve, poor fit] | –
5 | CCOC(=O)c1[nH]c2ccccc2c1NC(=S)Nc1cccc(C)c1 | inconclusive: 11.6 µM [activator, single point] | –
6 | CCOC(=O)CCCN1CC(O)=C(c2nc(-c3ccc(Cl)cc3)cs2)C1=N | inconclusive: 6.51 µM [falling, single point] | –
7 | O=C(C1CCCN1S(=O)(=O)c1ccc(Cl)c(Cl)c1)N1CCOCC1 (centres undefined) | – | inconclusive: -21.1%
8 | COc1ccc(CC(=O)NCc2n[nH]c(=S)n2-c2ccc(Br)cc2)cc1 | – | inconclusive: 3.49%
9 | Cc1ccc(N(C(C)C(=O)Nc2ccc3c(c2)OCO3)S(C)(=O)=O)cc1 (centres undefined) | inconclusive: 6.51 µM [activator, single point] | –
10 | Brc1ccc(C2=Nc3ccccc3C(c3ccncc3)=NN2)cc1 | – | inconclusive: 5.18%
11 | NS(=O)(=O)c1cccc(NC(=O)C2CC(=O)N(Cc3ccco3)C2)c1 (centres undefined) | inconclusive: 3.66 µM [cytotoxic, full curve] | –
12 | COc1ccc(O)c(C(=O)c2cnn(S(=O)(=O)c3ccc(C)cc3)c2)c1 | inconclusive: 11.6 µM [falling, partial curve] | –
13 | CCOC(=O)C1CCN(C(=O)CCc2nnc3ccc(N4CCN(C)CC4)nn23)CC1 | inconclusive: 20.6 µM [activator, single point] | –
14 | Cc1cnc(C(=O)OCC(=O)c2c(N)n(CC(C)C)c(=O)n(C)c2=O)cn1 | – | inconclusive
15 | O=C(O)CCCC(=O)Nc1ccccc1C(=O)N1CCCC1 | active: 4.61 µM | –
16 | COC(=O)c1ccc(CNC(=O)c2c3c(nc4ccccc24)CCN(Cc2ccccc2)C3)cc1 | – | inconclusive: 31.9%
17 | COC(=O)C(NS(=O)(=O)c1ccccc1Cl)c1ccccc1 (centres undefined) | – | inconclusive: -0.799%
18 | CCN(CCO)Cc1csc2cc(C)ccc12 | inconclusive: 29.1 µM [activator, single point] | –
19 | O=C(COc1ccccc1)N1CCCCCCC1 | inconclusive: 29.1 µM [activator, single point] | –
20 | COc1ccc(C)cc1COC(=O)c1[nH]c(C)c(C(C)=O)c1C | – | inconclusive: -53.3%
21 | CN(C)C(=O)c1snnc1-c1ccccc1 | inconclusive: 29.1 µM [activator, single point] | –
22 | COc1ccc(C(C)=O)cc1CC(=O)Nc1cccc(S(=O)(=O)N2CCOCC2)c1 | – | inconclusive: 34.9%
23 | CC(C)C[C@@H](NC(=O)[C@H]1CCCN1C(=O)Cc1ccccc1)C(N)=O (PhAc-[dP]-[dL]-NH2) | – | inconclusive: -36%
24 | Cc1ccc(C(=O)CCC(=O)NCc2ccccc2)cc1 | – | inconclusive: -7.74%
25 | CCC(C)N(C(=O)COc1ccccc1C#N)C1CCS(=O)(=O)C1 (centres undefined) | – | inconclusive: 11.7%

Filtered by structure: the compounds so far with an NH in an aromatic ring.
Row | SMILES | Potency | lipid storage change, negative = inhibition
3 | Cc1ccc2cn[nH]c2c1[N+](=O)[O-] | inconclusive: 0.58 µM [falling, single point] | –
5 | CCOC(=O)c1[nH]c2ccccc2c1NC(=S)Nc1cccc(C)c1 | inconclusive: 11.6 µM [activator, single point] | –
8 | COc1ccc(CC(=O)NCc2n[nH]c(=S)n2-c2ccc(Br)cc2)cc1 | – | inconclusive: 3.49%
20 | COc1ccc(C)cc1COC(=O)c1[nH]c(C)c(C(C)=O)c1C | – | inconclusive: -53.3%

Following part

Row | SMILES | Potency | lipid storage change, negative = inhibition
26 | O=C(CSc1nnc(CNC(=O)c2cccs2)o1)Nc1cccc(Cl)c1 | inconclusive: 6.51 µM [activator, single point] | –
27 | CCOC(=O)CSc1nc2nc(C)cc(C)n2n1 | – | inconclusive: -27.3%
28 | C/C(=N\NC1=NCCN1)c1ccccc1 | – | inconclusive: 4.73%
29 | Cn1c(N)c(N2CCN(c3ccccc3)CC2)c(=O)[nH]c1=O | – | inconclusive: -1.54%
30 | COc1cc(/C=C2/SC(=S)NC2=O)ccc1OS(=O)(=O)c1ccc(C)cc1 | inconclusive: 29.1 µM [falling, single point] | –
31 | COCCn1c(SCC(=O)NC(=O)NC2CCCC2)nc2ccccc2c1=O | – | inconclusive: 19.9%
32 | COc1ccc(Cl)cc1N(C(=O)c1ccco1)C(C(=O)NC1CCCC1)c1ccco1 (centres undefined) | inconclusive: 18.4 µM [activator, partial curve] | –
33 | COc1ccc(C(=O)N[C@H](C(=O)NCc2ccco2)C(C)C)cc1 | – | inconclusive: -19.2%
34 | CCCCCCCCOC(=O)CCc1c(C)[nH]c(=S)[nH]c1=O | – | inconclusive: -12.1%
35 | O=C(COC(=O)c1cccc(S(=O)(=O)N2CCCC2)c1)Nc1ccccc1Cl | – | inconclusive
36 | CCc1cc(-c2n[nH]c(C)c2Oc2ccc(C(C)C)cc2)c(O)cc1O | inconclusive: 29.1 µM [falling, single point] | –
37 | Cc1ccc(OCC(=O)NC2CCCC2)c(C)c1 | inconclusive: 9.2 µM [activator, single point] | –
38 | CC(C)/C=N/Nc1nc(-c2ccc(Br)cc2)cs1 | – | inconclusive: 0.843%
39 | CCOC(O)[C@H]1N[C@@H](c2ccc(Cl)cc2)[C@@H]([N+](=O)[O-])[C@@H]1c1ccccc1 (some centres undefined) | – | inconclusive: 31.3%
40 | CC(=O)c1ccc(NC(=S)N2CCN(c3cccc(Cl)c3)CC2)cc1 | – | inconclusive: -7.6%
41 | CC(=O)/C(=N/Nc1ccc(C)cc1)Sc1nnc(CCc2ccccc2)n1-c1ccccc1 | – | inconclusive: -6.53%
42 | Cc1nnc(SCC(=O)N2CC(=O)Nc3ccccc32)n1Cc1ccccc1 | – | inconclusive: 92%
43 | CCn1cc([N+](=O)[O-])c(C(=O)Nc2nc(-c3ccc(C)c(C)c3)c(C)s2)n1 | – | inactive: 1.14%
44 | CCN(CC)S(=O)(=O)c1cccc(NC(=O)c2ccc(-n3nc(C)cc3C)cc2)c1 | inconclusive: 18.4 µM [falling, single point] | –
45 | CCOc1ccc(OCCSc2nc(C)cc(=O)[nH]2)cc1 | inconclusive: 0.0046 µM [falling, full curve, poor fit] | –
46 | O=C(O)c1cc(N/N=C/C(Cl)=C/c2ccccc2)ccc1Cl | – | inconclusive: -29.2%
47 | COc1ccccc1C(=O)N/C(=C\c1ccccc1)C(=O)NC(C)C(=O)O (centres undefined) | – | inconclusive: -24.3%
48 | C/C=C/c1ccc(OCCn2nnc3ccccc32)c(OC)c1 | – | inactive: -26%
49 | Cc1ccc(NC(=O)CNc2ccc(N3CCOCC3)cc2)cc1S(=O)(=O)N(C)C | – | inconclusive: -15.7%
50 | O=C(CNC(=O)c1ccco1)N/N=C/c1cc(Br)ccc1O | – | inconclusive: -100%

Row | SMILES | Potency | lipid storage change, negative = inhibition
51 | O=C(c1cccc(Br)c1)N1CCCc2ccccc21 | active: 0.82 µM | –
52 | Cc1ccc(CNC(=O)CNS(=O)(=O)c2ccc(Br)s2)cc1 | inconclusive: 18.4 µM [activator, single point] | –
53 | Cc1ccc(OC(=O)CCNC(=O)c2ccccc2Cl)c(Br)c1 | – | inconclusive
54 | COc1ccc(S(=O)(=O)N2CCN(C(=O)C3CCCO3)CC2)cc1 (centres undefined) | inconclusive: 29.1 µM [activator, partial curve, poor fit] | –
55 | O=C(CSc1nc2ccccc2nc1N1CCOCC1)Nc1ccccc1F | inconclusive: 29.1 µM [falling, single point] | –
56 | Cc1ccc(NC(=O)Cc2ccc(-c3ccccc3)cc2)nc1 | – | inconclusive: 26.6%
57 | COc1ccc(C2=NN(C(=O)CSc3nnc(C)n3C)C(c3ccco3)C2)cc1 (centres undefined) | – | inconclusive: 5.28%
58 | CON=C1CCN(c2ncc(C(F)(F)F)cc2Cl)CC1 | inconclusive: 18.4 µM [falling, single point] | –
59 | COc1cccc2cc(C(=O)C3=C(O)C(=O)N(CCN(C)C)C3c3ccc(F)cc3)oc12 (centres undefined) | inconclusive: 1.46 µM [activator, partial curve] | –
60 | COc1ccc(CNC(=O)CN2C(=O)CC(c3ccccc3)=Nc3ccccc32)cc1 | – | inconclusive: -23.8%
61 | Cc1cccc(NC(=O)c2sc3nc(N)c(C#N)cc3c2N)c1 | – | inconclusive: -34.1%
62 | Cc1nn(CC#N)c(=O)n1-c1ccccc1F | inconclusive: 1.16 µM [falling, full curve] | –
63 | O=C1CC(c2ccccc2)CN1S(=O)(=O)c1ccccc1 (centres undefined) | active: 20.6 µM | –
64 | O=C(NCc1ccco1)N1c2ccccc2Sc2ccccc21 | – | inconclusive: 16.1%
65 | COc1ccc(C2SCC(=O)N2c2c(C)n(C)n(-c3ccccc3)c2=O)cc1 (centres undefined) | inconclusive: 5.8 µM [rising, partial curve, poor fit] | –
66 | COc1ccc(/C=C(\NC(=O)c2ccc([N+](=O)[O-])cc2)C(=O)NCCCn2ccnc2)cc1 | inconclusive: 1.16 µM [falling, single point] | –
67 | NC(=O)c1ccc(/C(N)=N/S(=O)(=O)c2cc(C(F)(F)F)cc(C(F)(F)F)c2)cc1 | – | inconclusive: 6.94%
68 | Cc1cc(S(=O)(=O)N2CCOCC2)ccc1OCC(=O)NCc1ccccn1 | inconclusive: 0.092 µM [falling, full curve] | –
69 | O=C(CNC(=O)c1ccc(S(=O)(=O)N2CCCC2)cc1)N/N=C/c1ccc(Cl)cc1Cl | inconclusive: 5.17 µM [activator, single point] | –
70 | CN(C)c1nnnn1-c1cccc(Oc2ncc(C(F)(F)F)cc2Cl)c1 | – | inconclusive: 9.65%
71 | Cc1sc(NC(=O)c2ccco2)c(CN2CCN(Cc3ccccc3)CC2)c1C | inconclusive: 23.1 µM [falling, single point] | –
72 | CCC(CC)C(=O)Nc1cccc(C(=O)Nc2nccs2)c1 | – | inconclusive: 31%
73 | CC(=O)Oc1ccc(C(=O)Nc2ccccc2C(=O)Nc2cccc(C(=O)O)c2)cc1 | inconclusive: 29.1 µM [activator, partial curve] | –
74 | CN(C)c1nc(N/N=C/c2c[nH]c3ccccc23)nc(N2CCOCC2)n1 | – | inconclusive: 15.5%

Source: PubChem BioAssay AID2685 (National Center for Advancing Translational Sciences (NCATS), 2010)
